Assay results taken from patent US20220354957A1, “PEPTIDES TARGETING MACROPHAGES, AND CONJUGATES, COMPOSITIONS, AND USES THEREOF” (Twinpig Biolab, Inc., priority 2021, published 2022).
Entries after “also recorded” stand apart in the source; their conditions may differ. Not every detail of the peptide structures is certain; ends, links or a residue may be inferred.

Experiments:
[1] = system: M2 macrophages; assay: Apoptosis and caspase-3 expression in THP-1-derived macrophages; assay type: cell-based, human
Description: THP-1 cells were differentiated into macrophages by 24 h incubation with 100 nM PMA and polarized in M2 macrophages by incubation with 20 ng/ml of IL-4 and 20 ng/ml of IL-13 for 72 h. Polarized cells were treated with increasing concentrations of TAMpep and fragments of TAMpep (0.05-20 μM) for 24 h. Cell viability was analyzed using the CCK-8 assay: CCK-8 reagent (Enzo Life Sciences) was added to each well; incubation was continued for 2 hours, and absorbance was measured at 450 nm with a microplate reader (Molecular Devices).
THP-1 cells were seeded on cover glasses in 24-well plates and differentiated into M0, M1 and M2 macrophages. Cells were treated with 1 μM TAMpepK and MpepK for 1 h and incubated for 24 h after remove of peptides. Cells were washed, fixed with 4% paraformaldehyde for 10 minutes at […] and blocked with 0.1% normal goat serum for 1 hour. The cover glasses were then incubated with anti-caspase-3 antibody (1:50, rabbit polyclonal, Abcam) overnight at 4° C., and then washed and stained with Alexa 594-labelled goat anti-rabbit lgG (1:500, Invitrogen) at 37° C. for 1 hr. The cover glasses were mounted in Vectashield mounting medium (Vector Laboratories) with DAPI to visualize nuclei. Images photographed by fluorescence microscope (Leica).

[2] = system: melanoma cells; assay: Proliferation and migration of melanoma cells by conditioned medium of M2 macrophages; assay type: cell-based, human; conditions: conditioned medium of M2 macrophages pretreated with 1 μM peptide
[3] = system: murine melanoma cells (B16F10 cell line); assay: Mouse model of melanoma (subcutaneous B16F10); assay type: in vivo; conditions: B16F10 in C57BL6J mice, 200 nmol/kg i.p. every 3 days, vs PBS group
Excerpt: (§1) BALB/c and C57BL/6 (B6) wild-type mice were purchased from DBL. For the subcutaneous tumor model of melanoma and prostate cancer, CT26 (3×10^5 cells/mouse), B16F10 (1×10^6 cells/mouse) and TRAMP-C2 cells (1×10^6 cells/mouse) were mixed with Matrigel matrix (Corning) and inoculated subcutaneously into the right flank of the mice, and 4T1 (1×10^5 cells/mouse) cells mixed with Matrigel matrix and inoculated into a 4th mammary fat pad of the mice. TAMpepK, and MpepK peptides (200 nmol/kg) were injected intraperitoneally every 3 days, beginning at day 7 after tumor inoculation, and tumor volume was measured by electronic caliper. All tumor tissues were harvested after the end of the study and tumor weight was measured by an electronic balance.

[4] = system: M2-like TAMs; assay: FACS of tumor macrophages and CD8+ T cells in mouse model of melanoma; assay type: in vivo; conditions: vs PBS group
Excerpt: as §1
THP-1 cells were differentiated into macrophages by a 24 h incubation with 100 nM PMA and polarized in M2 macrophages by incubation with 20 ng/ml of IL-4 and 20 ng/ml of IL-13 for 72 h. Polarized cells were treated with 50 nM TAMpep and fragments of TAMpep or Mpep and alanine library of Mpep conjugated with FITC for 1 h. To test change of macrophage population in melanoma tissue, the single cells were isolated from tumor tissue through a 40 μm nylon mesh strainer after dissociation by DNase I (1 U/mL) and collagenase D (1 mg/ml). Cells were detected on BD FACSCalibur and BD FACSCantoII instruments and analyzed by FlowJo software.

[5] = system: macrophages treated with TCM; assay: Cell viability of macrophages differentiated by TCM; assay type: cell-based, human; conditions: 1 μM
[6] = system: PC3 cells; assay: Proliferation and migration of prostate cancer cells by conditioned medium of macrophages; assay type: cell-based, human; conditions: conditioned media of M2 macrophages and M2-like TAMs pretreated with peptide
Description: (§2) To obtain conditioned media of tumor (TCM), PC3 cells were seeded at 2×10^5 cells/well in culture medium in 24-well plates (Corning Inc). After 24 hours, the medium was changed to serum-free RPMI1640 medium and the cells were incubated for 24 hours. For conditioned media of macrophages, THP-1 cells were seeded at 2×10^5 cells/well in culture medium in 24-well plates (Corning Inc) and incubated with 100 nM PMA for 24 h. Cells were polarized into M0, M1, and M2 macrophages or TAM macrophages by TCM and changed to serum-free RPMI1640 medium. After 24 hours, the medium was changed to serum-free RPMI1640 medium and the cells were incubated for 24 hours. Supernatants were harvested and clarified with syringe filters (0.2 μm, Milipore). Supernatants of PC3 cells were named tumor-conditioned medium (TCM).
Migration of prostate cancer and melanoma cells was assessed with wound healing assays. PC3 and Sk-Mel-28 cells were seeded at 2×10^5 cells/well in 24-well plates and cultured in RPMI1640 with 10% FBS. When the cells reached confluence, they were wounded by scraping across the surface of the well with a sterile micropipette tip. […] Wound areas were measured with ImageJ software (NCI, Bethesda, Md., USA). The percent of each wounded area filled by cell migration was calculated as: (mean wounded breadth—mean remaining breadth)/mean wounded breadth×100.

[7] = system: PC3 cells; assay: Invasion assay of prostate cancer cells with conditioned medium of macrophages; assay type: cell-based, human; conditions: conditioned medium of M2 macrophages and M2-like TAMs pretreated with peptide
Description: as §2, with “Supernatants of PC3 cells were named tumor-conditioned medium (TCM).” left out
The invasiveness of prostate cancer cells treated with conditioned media of macrophages was tested according to the manufacturer's instructions for the invasion assay (Corning Inc.) with slight modifications. Briefly, invasiveness was assessed using 24-well plates fitted with polycarbonate 8-μm pore membrane inserts (Corning Inc.) pre-coated with Matrigel (200-300 μg/mL) for 2 hours at 37° C. […] Five randomly selected fields per membrane were counted under a light microscope (Olympus). The invasion index was calculated from the number of cells that migrated in response to conditioned medium compared with the control without conditioned medium.

[8] = system: TRAMP-C2 cells; assay: Mouse model of prostate cancer (subcutaneous TRAMP-C2); assay type: in vivo
Excerpt: as §1
Cells were harvested and lysed in PRO-PREP protein extraction solution (iNtRON, Bio Inc, Sungnam, Korea). Protein concentrations were measured with a Bradford Protein Assay Reagent kit (Bio-Rad, Richmond, CA, USA). Proteins were fractionated by 10% SDS-polyacrylamide gels electrophoresis (PAGE), and transferred onto polyvinylidene difluoride (PVDF) membranes. These were incubated with anti-arginase 1, anti-CD206, anti-caspase 3, anti-E-cadherin, anti-fibronectin, anti-PCNA, anti-TGF-β, anti-MMP9, and anti-β-actin Ab as primary antibodies. Goat anti-rabbit horseradish peroxidase-conjugated IgG or goat anti-mouse horseradish peroxidase-conjugated IgG (Abcam, Cambridge, Mass., USA) served as secondary antibodies. Protein bands were detected with a chemiluminescence reagent kit (SurModics).

[9] = system: CT26; assay: Colon cancer model (CT26); assay type: in vivo, mouse; conditions: vs PBS group
Excerpt: as §1

[10] = system: 4T1; assay: 4th mammary orthotopic mouse model of breast cancer (4T1); assay type: in vivo; conditions: vs PBS group
Excerpt: as §1
Total RNA was extracted using Easy-Blue reagent. Concentrations of RNA were determined and quantified by measuring absorbance at 260 and 280 nm with a spectrophotometer. Complementary DNA (cDNA) was synthesized from total RNA using a Maxime RT PreMix kit (iNtRON). Real-time PCR analysis was performed with SYBR Green Master Mix. PCR conditions were forty-five cycles at 95° C. for 5 min, followed by 95° C. for 10 sec, 60° C. for 10 sec and 72° C. for 10 sec. mRNA expression were quantified in triplicate. Data were measured with CFX Software (Bio-Rad). GAPDH and β-actin were used as internal controls.

[11] = TRAMP-C2 in C57BL6J mice, i.p. every 3 days, vs PBS group

`CC[C@H](C)[C@H](NC(=O)CNC(C)=O)C(=O)NCC(=O)N[C@@H](C)C(=O)N[C@H](C(=O)N[C@@H](CC(C)C)C(=O)N[C@@H](CCCCN)C(=O)N[C@H](C(=O)N[C@@H](CC(C)C)C(=O)N[C@H](C(=O)N[C@H](C(=O)NCC(=O)N[C@@H](CC(C)C)C(=O)N1CCC[C@H]1C(=O)N[C@@H](C)C(=O)N[C@@H](CC(C)C)C(=O)N[C@H](C(=O)N[C@@H](CO)C(=O)N[C@@H](Cc1c[nH]c2ccccc12)C(=O)N[C@H](C(=O)N[C@@H](CCCCN)C(=O)N[C@@H](CCCNC(=N)N)C(=O)N[C@@H](CCCCN)C(=O)N[C@@H](CCCNC(=N)N)C(=O)N[C@@H](CCC(N)=O)C(=O)N[C@@H](CCC(N)=O)C(=O)NCC(=O)NCC(=O)NCC(=O)NCC(=O)N[C@@H](CO)C(=O)N[C@H](CCCCN)C(=O)N[C@H](CC(C)C)C(=O)N[C@H](C)C(=O)N[C@H](CCCCN)C(=O)N[C@H](CC(C)C)C(=O)N[C@H](C)C(=O)N[C@H](CCCCN)C(=O)N[C@H](CCCCN)C(=O)N[C@H](CC(C)C)C(=O)N[C@H](C)C(=O)N[C@H](CCCCN)C(=O)N[C@H](CC(C)C)C(=O)N[C@H](C)C(=O)N[C@H](CCCCN)C(=O)O)[C@@H](C)CC)[C@@H](C)CC)[C@@H](C)O)[C@@H](C)O)C(C)C)C(C)C` [TAMpepK] was tested, and the “expression of caspase-3 in M2 macrophages compared to other subtype macrophages” value ([1]; 1 μM, 1 h, then 24 h) was “increased”, the “apoptosis in M2 macrophages compared to M0 and M1 macrophages” value ([1]; 0.01-10 μM) was “induced apoptosis” and the “expression of caspase-3 in M2 macrophages compared to melanoma cells” value ([1]; THP-1-derived M2 macrophages vs Sk-Mel-28) was “increased”. For the same molecule, the “proliferation of melanoma cells” value [2] was “inhibited”, the “migration of melanoma cells” value ([2]; wound healing) was “inhibited” and the tumor volume [3] was “significantly reduced”. For the same molecule, the tumor weight [3] was “significantly reduced”, the “exhaustion markers, such as PD-1 and LAGS, in CD8+ T cells” value ([4]; melanoma model) was “significantly reduced” and the “M1-like TAMs (F4/80+ and CD86+ cells)” value ([4]; melanoma tumor tissue) was “did not a change; also recorded: no change”. For the same molecule, the M1/M2 ratio ([4]; melanoma tumor tissue) was “increased the rate of M1 macrophages; also recorded: significantly increased”, the “M2-like TAMs (F4.80+ and CD206+ cells)” value ([4]; melanoma tumor tissue) was “reduced significantly” and the “apoptosis in macrophages treated with TCM” value [5] was “induced apoptosis”. The “proliferation of PC3 cells” value [6] was “significantly reduced”, the “migration of PC3 cells” value ([6]; wound healing) was “significantly reduced” and the “invasion of PC3 cells” value [7] was “significantly reduced”. The tumor volume [8, 11] was “significantly reduced”, the tumor weight [8, 11] was “significantly reduced” and the “E-cadherin (epithelial cell marker) in tumor tissues” value ([8]; prostate cancer model) was “increased”. For the same molecule, the “expression of PCNA (proliferative marker) in tumor tissues” value ([8]; prostate cancer model) was “reduced”, the “expression of TGF-β and MMP9 in tumor tissues” value ([8]; prostate cancer model) was “reduced” and the “vimentin and fibronectin (mesenchymal marker) in tumor tissues” value ([8]; prostate cancer model) was “reduced”. For the same molecule, the tumor volume [9] was “significantly reduced”, the tumor weight [9] was “significantly reduced” and the tumor volume [10] was “decreased”. The tumor weight [10] was “decreased”.
